From the supplement of paper PMC8256030
“And” between values parts separate entries of the source, which are not always exact repeats. Identical values can stand only once. The list shows a part of the results. Repeats in this data set agree poorly, so a single value says little.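 HEK293T cells were given each compound shortly before transfection with a reporter in which red mCherry is followed by the SARS-CoV-2 frameshift element and then GFP in the −1 frame, so GFP appears only after frameshifting.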

system: SARS-CoV-2 -1 PRF reporter mCherry-FSE-GFP(-1); assay: percent effect, decrease of GFP/mCherry ratio (-1 PRF reporter) relative to controls; higher = stronger frameshift inhibition; settings: 10 µM; 24 h; HEK293T

Row | SMILES | percent effect
1 | Cc1cnc(C(=O)O)c[n+]1[O-] [acipimox] | 3.09% and 0.0868%
2 | COc1ccc([C@@H]2Sc3ccccc3N(CCN(C)C)C(=O)[C@@H]2OC(C)=O)cc1 [diltiazem] | 13% and -7.77%
3 | OC[C@@H](O)[C@@H](O[C@@H]1O[C@H](CO)[C@H](O)[C@H](O)[C@H]1O)[C@H](O)[C@@H](O)CO | -2.56% and -0.352%
4 | O=S(=O)(c1cccc2cnccc12)N1CCCNCC1 | 6.07% and -1.16%
5 | CN(C)CCCN1c2ccccc2Sc2ccc(Cl)cc21 [chlorpromazine] | -0.768% and -0.815%
6 | C[C@@H](O)[C@@H]1NC(=O)[C@H](CCCCN)NC(=O)[C@@H](Cc2c[nH]c3ccccc23)NC(=O)[C@H](Cc2ccccc2)NC(=O)[C@@H](NC(=O)[C@H](N)Cc2ccccc2)CSSC[C@@H](C(=O)N[C@H](CO)[C@@H](C)O)NC1=O [Octreotide] | -2.24% and -4.19%
7 | CC(C(=O)O)c1cccc(Oc2ccccc2)c1 (centres undefined) [fenoprofen] | 0.835% and -11.7%
8 | CC(=O)[C@H]1CC[C@H]2[C@@H]3C[C@H](C)C4=CC(=O)CC[C@]4(C)[C@H]3[C@@H](O)C[C@]12C [medrysone] | -1.87% and -2.43%
9 | C#C[C@]1(O)CC[C@H]2[C@@H]3CCC4=CC(=O)CC[C@]4(C)[C@H]3CC[C@@]21C [ethisterone] | -1.18% and -6.49%
10 | COc1c(N2CCNC(C)C2)c(F)cc2c(=O)c(C(=O)O)cn(C3CC3)c12 (centres undefined) [gatifloxacin] | -1.53% and -1.64%
11 | N=C(N)N1CCc2ccccc2C1 [debrisoquine] | -3.87% and 1.81% and 0.97%
12 | CN(C/C=C/C#CC(C)(C)C)Cc1cccc2ccccc12 [terbinafine] | 1.86% and -1.25% and -0.00367%
13 | CC1CCc2c(N3CCC(O)CC3)c(F)cc3c(=O)c(C(=O)O)cn1c23 (centres undefined) [nadifloxacin] | -3.94% and -3.19%
14 | CN(C)CCC=C1c2ccccc2CCc2ccccc21 [amitriptyline] | -4.35% and -3.95%
15 | CNC1(C)C2CCC(C2)C1(C)C (centres undefined) [mecamylamine] | -5.15% and -4.32% and -2.7%
16 | CN(C)CCCC1(c2ccc(F)cc2)OCc2cc(C#N)ccc21 (centres undefined) [citalopram] | 4.72% and -7.14%
17 | O=c1[nH]cc(F)c(=O)[nH]1 [fluorouracil] | 3.17% and 6.59%
18 | C[C@H]1C[C@@H]2[C@H]([C@@H](O)C[C@@]3(C)[C@H]2CC[C@]3(O)C(=O)CO)[C@@]2(C)C=CC(=O)C=C12 [methylprednisolone] | -1.05% and -2.95%
19 | NC(=O)c1ncn([C@@H]2O[C@H](CO)[C@@H](O)[C@H]2O)n1 [ribavirin] | -3.05% and -11.4%
20 | O=c1[nH]c(=O)n([C@H]2C[C@H](O)[C@@H](CO)O2)cc1I [idoxuridine] | -2.5% and -6.71%

Row | SMILES | percent effect
21 | CCCCCOC(=O)Nc1nc(=O)n([C@@H]2O[C@H](C)[C@@H](O)[C@H]2O)cc1F [capecitabine] | 0.248% and 5.02%
22 | O=C(O)CCCc1ccc(N(CCCl)CCCl)cc1 [chlorambucil] | 1.88% and -12.6%
23 | CCOC(=O)[C@H](CCc1ccccc1)N[C@@H](C)C(=O)N1Cc2ccccc2C[C@H]1C(=O)O [quinapril] | 2.84% and -7.36%
24 | CCCCCCCCCCCCCCCCOP(=O)([O-])OCC[N+](C)(C)C [miltefosine] | -3.38% and -2.99%
25 | Cc1ccc(C)c(OCCCC(C)(C)C(=O)O)c1 [gemfibrozil] | -0.962% and -7.54%
26 | C[C@]12CC[C@@H]3c4ccc(OC(=O)N(CCCl)CCCl)cc4CC[C@H]3[C@@H]1CC[C@@H]2O [estramustine] | -4.02% and -11%
27 | O=C1CCC(N2C(=O)c3ccccc3C2=O)C(=O)N1 (centres undefined) [thalidomide] | -0.0436% and 0.752%
28 | COc1cc(Cc2cnc(N)nc2N)cc(OC)c1OC [trimethoprim] | -6.91% and -4.95%
29 | NS(=O)(=O)c1cc2c(cc1Cl)NC(C(Cl)Cl)NS2(=O)=O (centres undefined) [trichlormethiazide] | -0.687% and 1.05%
30 | C#C[C@]1(O)CC[C@H]2[C@@H]3CCC4=Cc5oncc5C[C@]4(C)[C@H]3CC[C@@]21C [danazol] | -0.907% and -6.37%
31 | Cc1ccc(NC(=O)c2ccc(CN3CCN(C)CC3)cc2)cc1Nc1nccc(-c2cccnc2)n1 [imatinib] | -1.88% and -5.74%
32 | CC(C)Cn1cnc2c(N)nc3ccccc3c21 [imiquimod] | -4.82% and 0.338%
33 | CC[C@]1(O)C[C@@H]2CN(CCc3c([nH]c4ccccc34)[C@@](C(=O)OC)(c3cc4c(cc3OC)N(C)[C@H]3[C@@](O)(C(=O)OC)[C@H](OC(C)=O)[C@]5(CC)C=CCN6CC[C@]43[C@@H]65)C2)C1 [Vinblastine] | -4.07% and -8.05%
34 | COc1cc(NC(C)CCCN)c2ncccc2c1 (centres undefined) [primaquine] | -2.38% and -11.7%
35 | Cc1c(Cl)cccc1Nc1ccccc1C(=O)O [tolfenamic acid] | 1.94% and -0.234%
36 | CCNC(=O)/C=C/c1cccc(Br)c1 | 2.22% and -2.5%
37 | CC(=O)N[C@@H](CS)C(=O)O [acetylcysteine] | 1.55% and -4.38%
38 | CN1CCC(=C2c3ccccc3CC(=O)c3sccc32)CC1 [ketotifen] | -9.89% and -8.79%
39 | C[C@H]1C[C@H]2[C@@H]3CCC4=CC(=O)C=C[C@]4(C)[C@@]3(F)[C@@H](O)C[C@]2(C)[C@@]1(O)C(=O)CO [betamethasone] | 0.626% and -6% and -6.36%
